No constants are given. Whether binding was seen depends on the method and setting. In cells and extracts the contact can be indirect. Some entries that bind do so weakly or less than the wild type. Each block holds one molecule with its values, some of them ahead of it.
Assays:
[1] = molecular target: T1, circadian locomotor output cycles kaput (CLOCK) (human (endogenous in OSCC cell lines)) (UniProt O15516); assay: co-IP; nuclear protein extracts of synchronized human OSCC cells across a circadian cycle; magnetic beads preloaded with anti-PER2, anti-CLOCK or anti-BMAL1 antibody (IgG as negative control), 4 °C for 4 h; Western blot; also in CRY1-knockdown or CRY2-knockdown CAL27 cells (complex significantly decreased)
T1 sequence: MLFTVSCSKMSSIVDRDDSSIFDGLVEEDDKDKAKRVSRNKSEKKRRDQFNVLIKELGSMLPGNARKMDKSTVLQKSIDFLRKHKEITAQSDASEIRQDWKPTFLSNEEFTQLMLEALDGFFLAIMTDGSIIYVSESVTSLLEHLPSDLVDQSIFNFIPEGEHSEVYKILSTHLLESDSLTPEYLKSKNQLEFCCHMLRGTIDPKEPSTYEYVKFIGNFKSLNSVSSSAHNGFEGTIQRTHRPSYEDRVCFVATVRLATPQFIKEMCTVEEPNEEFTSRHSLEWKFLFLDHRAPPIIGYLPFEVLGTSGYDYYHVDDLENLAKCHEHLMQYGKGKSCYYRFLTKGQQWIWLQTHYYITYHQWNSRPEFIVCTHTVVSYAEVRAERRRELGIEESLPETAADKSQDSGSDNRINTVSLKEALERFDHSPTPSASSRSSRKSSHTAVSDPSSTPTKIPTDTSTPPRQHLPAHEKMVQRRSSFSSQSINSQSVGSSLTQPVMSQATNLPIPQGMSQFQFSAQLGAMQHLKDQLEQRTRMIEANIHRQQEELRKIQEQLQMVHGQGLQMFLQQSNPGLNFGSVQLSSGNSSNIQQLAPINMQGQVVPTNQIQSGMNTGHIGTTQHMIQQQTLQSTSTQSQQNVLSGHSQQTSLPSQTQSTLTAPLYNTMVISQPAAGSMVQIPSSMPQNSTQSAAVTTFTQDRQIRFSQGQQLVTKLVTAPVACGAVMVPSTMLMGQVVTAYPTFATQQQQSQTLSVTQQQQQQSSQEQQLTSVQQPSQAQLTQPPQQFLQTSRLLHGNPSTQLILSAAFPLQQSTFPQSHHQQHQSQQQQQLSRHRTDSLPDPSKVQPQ

Chains of the proteins cited; added tags and fusions are not shown.
UniProt O00327: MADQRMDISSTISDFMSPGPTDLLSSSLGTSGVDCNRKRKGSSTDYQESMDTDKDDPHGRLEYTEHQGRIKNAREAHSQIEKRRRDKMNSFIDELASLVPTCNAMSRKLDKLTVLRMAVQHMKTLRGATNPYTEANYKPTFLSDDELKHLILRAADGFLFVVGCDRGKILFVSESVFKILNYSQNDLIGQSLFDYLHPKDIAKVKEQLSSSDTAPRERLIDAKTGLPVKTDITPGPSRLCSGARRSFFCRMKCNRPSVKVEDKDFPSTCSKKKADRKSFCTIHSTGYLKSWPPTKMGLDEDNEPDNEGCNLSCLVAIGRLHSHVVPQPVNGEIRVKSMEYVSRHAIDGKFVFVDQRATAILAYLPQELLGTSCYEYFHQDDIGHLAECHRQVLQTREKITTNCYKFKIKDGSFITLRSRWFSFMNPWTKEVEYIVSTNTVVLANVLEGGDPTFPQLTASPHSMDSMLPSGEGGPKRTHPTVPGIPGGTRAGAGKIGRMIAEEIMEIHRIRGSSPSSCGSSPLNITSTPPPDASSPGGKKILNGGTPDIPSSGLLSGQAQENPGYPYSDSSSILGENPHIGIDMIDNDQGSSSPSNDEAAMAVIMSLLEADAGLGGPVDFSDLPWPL

[2] = molecular target: brain and muscle arnt-like 1 (BMAL1) (human (endogenous in OSCC cell lines)) (UniProt O00327); assay: as above

binding [1]: binds
Molecule: brain and muscle arnt-like 1 (BMAL1) (from UniProt O00327 1-626)

binding [2]: binds
B1: circadian locomotor output cycles kaput (CLOCK) (protein, UniProt O15516 1-846)
chain: T1 sequence
